Measured values taken from PubChem BioAssay AID588497 (NMMLSC, 2011).
Hit rate of the full screen: of about 360,000 compounds, about 780 (0.22%) were called active. This list was built around the results that the source calls inconclusive (neither active nor inactive); the mix of calls is not that of the screen. No stated cut-off is given here; in the data, active means inhibition above about 35% (passing the limit was not always enough); inconclusive means no clear call, values can overlap the other calls.

The molecules below were run on Botulinum neurotoxin type F light chain protease (Clostridium botulinum) (assay: BoNT/F light chain protease inhibitors, primary screen, biochemical, flow cytometry, MLPCN library (AID 588497; further: plate controls were buffer without enzyme for full effect and enzyme alone for no effect)). Settings: Multiplex microsphere protease cleavage assay, at 10 µM, hits give high values.

**Q.** `Cc1nc2ncnn2c(N2CCN(C(c3ccccc3)c3ccccc3)CC2)c1C` was tested. Which inhibition did it give?
**A.** inactive: 0%

**Q.** `O=C(Cn1ccc(NC(=O)OCc2ccccc2)nc1=O)NCc1ccc2c(c1)OCO2` was tested. Which inhibition did it give?
**A.** inactive: 8.8%

**Q.** For `Cc1cc(=O)n2nc(N3CCCC(C(=O)Nc4cccc(C)c4C)C3)sc2n1` (stereo not drawn), which inhibition is on record?
**A.** inactive: 2.2%

**Q.** For `C=CCn1c(SCC(=O)NC)nnc1C12CC3CC(CC(C3)C1)C2`, which inhibition is on record?
**A.** inconclusive: -28.2%

**Q.** For `O=C(c1ccccc1)c1n[nH]c(-c2ccccc2)cc1=O`, which inhibition is on record?
**A.** inactive: -1.5%

**Q.** For `CN(/N=C/c1ccccc1O)C(=S)c1ccccc1`, which inhibition is on record?
**A.** inconclusive: 30.9%

**Q.** `CCN(c1ccccc1)c1nc2nonc2nc1NCCO` was tested. Which inhibition did it give?
**A.** inconclusive: -1.6%

**Q.** With `O=C(COC(=O)c1cc(-c2cccs2)nn1-c1ccccc1)Nc1ccc(F)c([N+](=O)[O-])c1` as the molecule, how does the inhibition read?
**A.** inactive: -1.5%

**Q.** `CCOC(CCc1c(C)nc(NC(C)=O)[nH]c1=O)OCC` was tested. Which inhibition did it give?
**A.** inconclusive: -18.3%

**Q.** How did the inhibition turn out when `CCCc1nc(SCC(=O)c2ccc(OC)cc2)c2ccccc2n1` was run?
**A.** inactive: -0.8%

**Q.** How did the inhibition turn out when `Fc1ccc(-c2csc(Nc3ccccn3)n2)c(F)c1` was run?
**A.** inconclusive: 3.1%

**Q.** `Cc1cccc(S(=O)(=O)c2c(N)n(/N=C/c3ccco3)c3nc4ccccc4nc23)c1` was tested. Which inhibition did it give?
**A.** inactive: 4.7%

**Q.** How did the inhibition turn out when `COCCCNC(=O)C1c2ccccc2Oc2ccccc21` was run?
**A.** active: 41.5%

**Q.** Which inhibition does the source give for `COc1cccc(-c2nn(-c3ccc(C)cc3)cc2C(=O)NCC2CCCO2)c1` (stereo not drawn) here?
**A.** inconclusive: 6.8%

**Q.** With `COc1cc(NC(=O)CSc2nnc(-c3cc(C)on3)o2)cc(OC)c1` as the molecule, how does the inhibition read?
**A.** inactive: -4.7%

**Q.** Which inhibition does the source give for `O=C(CN1c2ccccc2Sc2ccccc21)NNC(=S)Nc1ccc(Cl)cc1` here?
**A.** inconclusive: 5.1%

**Q.** Which inhibition does the source give for `COc1ccc(C(=O)N2CCN(c3ccc(N4CCOCC4)nn3)CC2)cc1OC` here?
**A.** inactive: -3.8%

**Q.** With `Nc1nc2c(ncn2[C@@H]2O[C@H](CNC(=O)[C@H](N)Cc3cncn3COCc3ccccc3)[C@@H](O)[C@H]2O)c(=O)[nH]1` as the molecule, how does the inhibition read?
**A.** inactive: -8.7%

**Q.** With `Oc1ccc(-c2csc(Nc3ccccn3)n2)cc1` as the molecule, how does the inhibition read?
**A.** inconclusive: 10.6%

**Q.** Which inhibition does the source give for `COc1ccc(-c2cc(C(=O)N3CCN(c4ncccn4)CC3)c3ccccc3n2)cc1OC` here?
**A.** inconclusive: 2%

**Q.** With `Cn1nc(C(F)(F)F)c(-c2cccc(C(F)(F)F)c2)c1NC(=O)CSCC(=O)O` as the molecule, how does the inhibition read?
**A.** inconclusive: 18.2%

**Q.** `CNC(=O)c1c(O)c2cccc3c2n(c1=O)CCC3` was tested. Which inhibition did it give?
**A.** inconclusive: 20.4%

**Q.** `c1ccc(CCN2CN=C(Nc3nc4ccccc4s3)NC2)cc1` was tested. Which inhibition did it give?
**A.** inconclusive: -42.5%

**Q.** For `CCN(CC)CCN1C(=O)C(O)=C(C(=O)c2cc3cccc(OC)c3o2)C1c1ccc(F)cc1` (stereo not drawn), which inhibition is on record?
**A.** inconclusive: -106%

**Q.** For `CCN(CC)c1ccc(C(=O)OCc2cc(=O)oc3cc(O)ccc23)cc1`, which inhibition is on record?
**A.** inactive: -1.2%

**Q.** For `COc1cc(NC(=S)N2CCN(C(=O)C3CCCO3)CC2)c(OC)cc1Cl` (stereo not drawn), which inhibition is on record?
**A.** inactive: -0.3%

**Q.** With `O=C(NCc1ccc2c(c1)OCO2)C1CC(c2ccc(Cl)cc2)=NO1` (stereo not drawn) as the molecule, how does the inhibition read?
**A.** inconclusive: 31.7%

**Q.** `CC(Sc1ccccc1)C(=O)NNC(=O)c1csc(N2CCOCC2)n1` (stereo not drawn) was tested. Which inhibition did it give?
**A.** inconclusive: -14.6%

**Q.** How did the inhibition turn out when `CC(C)CC(=O)N/C(N)=N/c1nc2ccccc2o1` was run?
**A.** inconclusive: -89.9%

**Q.** For `O=C(NCCN1CCN(C(=O)c2ccc([N+](=O)[O-])cc2)CC1)C(=O)Nc1ccc(F)cc1`, which inhibition is on record?
**A.** inactive: -0.3%

**Q.** Which inhibition does the source give for `O=S(=O)(Cc1noc(-c2ccc(OC(F)(F)F)cc2)n1)c1ccc(F)cc1` here?
**A.** inconclusive: 9.2%

**Q.** For `Fc1ccc(SCCc2ccccn2)cc1`, which inhibition is on record?
**A.** inconclusive: 6.9%

**Q.** Which inhibition does the source give for `CC1(C(=O)NCc2cccnc2)Cc2c(-c3cccc(C(F)(F)F)c3)ccnc2O1` (stereo not drawn) here?
**A.** inactive: 0%

**Q.** `O=C(c1cccc(S(=O)(=O)NCc2ccccc2)c1)N1CCCCC1` was tested. Which inhibition did it give?
**A.** inactive: -64.3%

**Q.** For `CCOc1ccc(NC(=O)CCN2C(=O)c3ccccc3C2=O)cc1`, which inhibition is on record?
**A.** inconclusive: 14.2%

**Q.** `O=C(O)CCNC(=O)/C(=C\c1ccco1)NC(=O)c1ccco1` was tested. Which inhibition did it give?
**A.** inconclusive: 4.6%

**Q.** `Cc1ccccc1NC(=O)c1cccnc1` was tested. Which inhibition did it give?
**A.** active: 66.2%

**Q.** Which inhibition does the source give for `CC(/C=C/c1ccc2c(c1)OCO2)=N\NC(=O)C(O)c1ccccc1` (stereo not drawn) here?
**A.** inconclusive: 14.8%

**Q.** How did the inhibition turn out when `Nc1ccc(-c2nc3nc(N)nc(N)c3nc2-c2ccc(N)cc2)cc1` was run?
**A.** inconclusive: -18.3%

**Q.** With `Cc1cccc(CSc2nnc3c(n2)[nH]c2ccccc23)c1` as the molecule, how does the inhibition read?
**A.** inconclusive: 19%

**Q.** With `OC1(c2ccc(F)cc2)CCNC1` (stereo not drawn) as the molecule, how does the inhibition read?
**A.** inactive: -0.9%

**Q.** How did the inhibition turn out when `Cc1onc(-c2c(Cl)cccc2Cl)c1C(=O)N=C(N)N1CC(C)OC(C)C1` (stereo not drawn) was run?
**A.** inconclusive: 19.9%

**Q.** With `COc1cc(NC(=O)CSc2nc3[nH]ncc3c(=O)n2-c2ccccc2C)cc(OC)c1OC` as the molecule, how does the inhibition read?
**A.** inactive: -0.9%

**Q.** For `CCOC(=O)c1c(C)n(Cc2ccco2)c2ccc(O)cc12`, which inhibition is on record?
**A.** inconclusive: 15.2%

**Q.** For `Cc1ccc(NC(=O)c2cc(S(=O)(=O)N(C)C)ccc2N2CCCC2)cc1F`, which inhibition is on record?
**A.** inactive: -0.1%

**Q.** With `N#Cc1nc(-c2ccc(F)cc2)oc1N1CCCC1` as the molecule, how does the inhibition read?
**A.** inactive: 5.4%

**Q.** How did the inhibition turn out when `CN(Cc1ccccc1)C(=O)CCC1CCN(S(C)(=O)=O)CC1` was run?
**A.** inactive: 5.1%

**Q.** Which inhibition does the source give for `CCn1c(SCC(=O)Nc2cc(C)nn2-c2ccccc2)nnc1-c1cccs1` here?
**A.** inconclusive: 51.7%

**Q.** `CCOC(=O)c1sc(NC(=O)CSc2nccc(C)n2)c(C#N)c1C` was tested. Which inhibition did it give?
**A.** inconclusive: -19.3%

**Q.** `CC12CN3CC(C)(CN(C1)C3c1ccc(Br)cc1)C2` (stereo not drawn) was tested. Which inhibition did it give?
**A.** inactive: 2.5%

**Q.** Which inhibition does the source give for `CC(C)Cn1cc(C(=O)N2CCC(C)CC2)c2c3ccccc3n(C)c2c1=O` here?
**A.** inactive: -4.5%

**Q.** `CCCn1c(/N=C/c2cc(OC)ccc2O)nc2ccccc21` was tested. Which inhibition did it give?
**A.** inconclusive: -35.2%

**Q.** `COC(=O)c1ccc(S(=O)(=O)N2CCC(O)CC2)n1C` was tested. Which inhibition did it give?
**A.** inconclusive: 4.5%

**Q.** With `CCCCC#Cc1cncc(C(=O)N/N=C/c2cccc(OC)c2)c1` as the molecule, how does the inhibition read?
**A.** inconclusive: -4.1%

**Q.** `Cn1c(SCC(=O)Nc2cccc(NC(=O)c3cccs3)c2)nnc1-c1ccncc1` was tested. Which inhibition did it give?
**A.** inconclusive: -28.3%

**Q.** For `O=C(Nc1ccc(OC(F)(F)F)cc1)C1CCCCN1S(=O)(=O)c1ccccc1` (stereo not drawn), which inhibition is on record?
**A.** inactive: 8.1%

**Q.** With `Cn1cccc1/C=N/N1CCN(Cc2ccccc2Cl)CC1` as the molecule, how does the inhibition read?
**A.** inconclusive: -58.3%

**Q.** `Cc1cn2c(N)c(/C=C3\C=Nc4ccccc43)c(=O)nc2s1` was tested. Which inhibition did it give?
**A.** inconclusive: 12.2%
